Consider two molecules from paper PMC9086926 (RSC Advances, 2018).

The nature of series [1]: Absorptive permeability across traditional 21 day Caco-2 cell model. The conditions noted are these: human. On the technique in general: Passage across Caco-2 layers is used to estimate intestinal permeability.
Series [2] is described as follows: Absorptive permeability across 7 day fast model. To be noted: human, Caco-2.
For series [3] the following is noted: cited from earlier work.

Broadly, the Papp A→B is how fast a substance crosses the layer from the apical side.

Consider `CC(C)NCC(O)COc1ccc(CC(N)=O)cc1` (centres unmarked) [Atenolol], for which the Papp A→B at 25 μM was 3.41 ± 0.23 ×10⁻⁶ cm/s in series [1] and 4.36 ± 0.68 ×10⁻⁶ cm/s in series [2].
Regarding `COc1ccc2cc([C@H](C)C(=O)O)ccc2c1` [Naproxen], the “FA (human absorption fraction)” value in series [3] is 99%. The figures for the Papp A→B at 25 μM in series [1] and in series [2] were 15 ± 2.37 ×10⁻⁶ cm/s and 14.7 ± 0.81 ×10⁻⁶ cm/s, respectively.
